Measured values from the NIST ThermoML archive (doi:10.1016/j.tca.2018.08.015).

Assay: molar heat capacity at constant pressure
Details: 101.33 kPa, Liquid, DSC

O=C(c1ccccc1)c1ccccc1 [benzophenone]
Details	molar heat capacity at constant pressure [J/K/mol]
245 K	265.3
255 K	269.9
265 K	274.5
275 K	279
285 K	283.6
295 K	288.1
305 K	292.7
315 K	297.3
325 K	301.8
335 K	306.4
345 K	311
